Measured values taken from patent publication EP4803151A2.
Results are given in words; binding and its absence hold for the method and conditions named. Some results given as binding are weak or reduced against the parent protein; the word gives no strength.

Molecular target: recombinant cynomolgus DLL3 his tag protein (KACTUS, Cat. No. DLL-CM103) (cynomolgus)
Test: ELISA, cynoDLL3-his coated at 1 ug/mL

Binder	binding
148C3A7-hIgG1 chimeric antibody (antibody, V domains shown) VH: EVQLQQSGPELIKPGTSVKMSCKASGYTFTTYLMHWVKQKPGQGLEWIGYINPYNDVTEYHEKFKDKATLTSDKSSSTAYMELSSLTSEDSAVYYCARLGGYGPGWYLDVWGAGTTVTVSS VL: DIQMTQSPASLSASVGETVTITCRASGSIHNYLAWYLHKQGKSPQLLVYNAKTLADGVPSRFSGSGSGTQYSLKINSLQPEDFGSYYCHHFWSTPWTFGGGTKLEIKR	binds
310P3C5-hIgG1 chimeric antibody (antibody, V domains shown) VH: EVQLQQSGPELVKPGASVKISCKASGYTFTDFYMNWVKQTHGKSLEWIGDANPNNGGTTHNPRFKGQATLTVDKSSNTAYMELRSLTSEDSAVYYCARGGLPGDFDYWGQGTTLTVSS VL: DIQMTQSSSSFSVSLGDRVTITCKASEDIYNRLAWYQQKPGNAPRLLISGVTSLETGVPSRFSGSGSGKDYTLSITSLQTEDVATYYCQQYWSFPWTFGGGTKLEIKR	binds
362H3D3-hIgG1 chimeric antibody (antibody, V domains shown) VH: EVQLQQSGPELLKPGASVKISCKASGYTFTDYTMHWVKQSHGRSLEWIGGIHPNYGGTSYNEKFKDKATLTVDKSSSTAYMEFRSLTSEDSAVYYCARWGYYGGSYWYFDVWGTGTTVTVSS VL: DIQMTQSPASLSVSVGETVTITCRASENIYSNLAWYQQKQGKSPQLLVYAATNLADGVPSRFSGSGSGTQYSLKINSLQSEDFGSYYCQHFWGTPYTFGGGTKLEIKR	binds
36B7F3-hIgG1 chimeric antibody (antibody, V domains shown) VH: QVQLQQSGPELVKPGASVKISCRASGYTFTDHHLNWVKQRPGQGLEWIGWIFPGSGSDYYNERFKDKATLTVDKSSSTAYMLLSSLTSEDSAVYFCERWDYWGQGTTLTVSS VL: QIVLTQSPTIMSASPGEKVTMTCSASSSISYMHWYQQKPGTSPKRWIYDTSTLASGVPARFSGGGSGTSYSLTISSMEAEDAATYYCHQRSSYPLTFGAGTKLELKR	binds
129H2B9-hIgG1 chimeric antibody (antibody, V domains shown) VH: EVNLEESGGGLVQPGGSMKLSCVVSGFTFSNYWMSWVRQSPEKGLEWVAEIRLKSDNYATHYAESVKGKFTISRDDSKSRLYLQMNSLRPEDTGIYYCTSNRFAYWGQGTLVTVSA VL: NIVMTQSPKSVSMSVGERVTLSCKASENVGTYVYWYQQKPEQSPKMMIYGASNRYTGVPDRFTGSGSATDFTLTIRSVQAEDLADYHCGQSYSYPFTFGSGTKLEIKR	binds
